According to the supplement of paper PMC6078165:
The reference is the same well before dosing, and untreated signal decays as well.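 Labels refer to human fibroblasts, largely primary: uterine (C12385, HUF), lung (H6013), bone (Hs27A), adrenal (HADF), skin (WS1), plus mammary HMF and breast cancer-associated Hs343T. Cancer lines are basal-like or mesenchymal-like triple-negative breast cancer. The paper counts as hits responses shifting over 3x the replicate standard deviation. The tissue of the other fibroblasts is not given here.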

Test system: MDAMB468
Assay: relative JC-1 red fluorescence (viability) vs pre-drug, coculture with fibroblast (fraction); higher = more viable cancer cells
Protocol: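 JC-1 labelled TNBC cells cocultured 1:1 (1,500 cells each) with CellTrace Violet stained primary or stromal fibroblasts in 384-well plates in FluoroBrite medium, treated with one of 42 anticancer drugs at 0.1, 1, 10 or 100 uM. JC-1 red fluorescence (mitochondrial integrity in cancer cells only) was read by plate reader every 8 h for 72 h. Values are normalised to each well's pre-drug value. The stock of one drug was tenfold lower, so its dose labels may be too high.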

O=C(O)CCCc1ccc(N(CCCl)CCCl)cc1 [Chlorambucil]
relative JC-1 red fluorescence
Details | 8 h | 16 h | 24 h | 32 h | 40 h | 48 h | 56 h | 64 h | 72 h
0.1 µM, coculture fibroblast: C12385 | 0.8282 | 0.837 | 0.852 | 0.836 | 0.829 | 0.874 | 0.856 | 0.872 | 0.886
0.1 µM, coculture fibroblast: H6013 | 0.854 | 0.848 | 0.818 | 0.822 | 0.815 | 0.842 | 0.829 | 0.827 | 0.78
0.1 µM, coculture fibroblast: H6019 | 0.844 | 0.844 | 0.8398 | 0.832 | 0.809 | 0.8174 | 0.7756 | 0.7596 | 0.7379
0.1 µM, coculture fibroblast: H6076 | 0.92079 | 0.958 | 0.916 | 0.926 | 0.864 | 0.87 | 0.861 | 0.86 | 0.913
0.1 µM, coculture fibroblast: H6231 | 0.785 | 0.9018 | 0.821 | 0.812 | 0.75 | 0.741 | 0.694 | 0.664 | 0.666
0.1 µM, coculture fibroblast: HADF | 0.858 | 0.838 | 0.792 | 0.783 | 0.755 | 0.767 | 0.735 | 0.743 | 0.696
0.1 µM, coculture fibroblast: HCFa | 0.881 | 0.865 | 0.8133 | 0.792 | 0.7465 | 0.7555 | 0.711 | 0.682 | 0.637
0.1 µM, coculture fibroblast: HCPF | 0.8281 | 0.9016 | 0.855 | 0.848 | 0.793 | 0.77 | 0.722 | 0.724 | 0.718
0.1 µM, coculture fibroblast: HHSteC | 0.907 | 0.88 | 0.854 | 0.822 | 0.785 | 0.8 | 0.75 | 0.729 | 0.685
0.1 µM, coculture fibroblast: HMF | 0.8575 | 0.955 | 0.921 | 0.917 | 0.853 | 0.838 | 0.797 | 0.786 | 0.783
0.1 µM, coculture fibroblast: HPFa | 0.895 | 0.8635 | 0.834 | 0.7735 | 0.7575 | 0.764 | 0.702 | 0.68 | 0.603
0.1 µM, coculture fibroblast: HUF | 0.863 | 0.829 | 0.8079 | 0.7505 | 0.73 | 0.738 | 0.704 | 0.705 | 0.701
0.1 µM, coculture fibroblast: Hs5 | 0.958 | 0.929 | 0.901 | 0.873 | 0.837 | 0.816 | 0.795 | 0.764 | 0.783
0.1 µM, coculture fibroblast: Hs27A | 0.836 | 0.86 | 0.798 | 0.801 | 0.774 | 0.785 | 0.766 | 0.754 | 0.699
0.1 µM, coculture fibroblast: Hs343T | 0.856 | 0.937 | 0.891 | 0.87 | 0.804 | 0.7853 | 0.7451 | 0.744 | 0.739
0.1 µM, coculture fibroblast: WS1 | 0.833 | 0.79 | 0.795 | 0.762 | 0.735 | 0.751 | 0.747 | 0.765 | 0.773
1 µM, coculture fibroblast: C12385 | 0.88 | 0.8284 | 0.784 | 0.716 | 0.663 | 0.64 | 0.595 | 0.561 | 0.546
1 µM, coculture fibroblast: H6013 | 0.879 | 0.8364 | 0.782 | 0.761 | 0.723 | 0.722 | 0.689 | 0.667 | 0.629
1 µM, coculture fibroblast: H6019 | 0.848 | 0.783 | 0.748 | 0.688 | 0.645 | 0.622 | 0.57 | 0.525 | 0.494
1 µM, coculture fibroblast: H6076 | 0.939 | 0.895 | 0.893 | 0.894 | 0.823 | 0.8067 | 0.76 | 0.741 | 0.786
1 µM, coculture fibroblast: H6231 | 0.8311 | 0.934 | 0.827 | 0.807 | 0.7553 | 0.7382 | 0.6884 | 0.662 | 0.637
1 µM, coculture fibroblast: HADF | 0.8946 | 0.845 | 0.791 | 0.773 | 0.721 | 0.714 | 0.673 | 0.655 | 0.609
1 µM, coculture fibroblast: HCFa | 0.869 | 0.8062 | 0.783 | 0.763 | 0.699 | 0.697 | 0.643 | 0.611 | 0.562
1 µM, coculture fibroblast: HCPF | 0.884 | 0.94 | 0.84 | 0.838 | 0.769 | 0.746 | 0.6988 | 0.6765 | 0.6758
1 µM, coculture fibroblast: HHSteC | 0.92 | 0.892 | 0.879 | 0.851 | 0.816 | 0.822 | 0.766 | 0.741 | 0.687
1 µM, coculture fibroblast: HMF | 0.8573 | 0.932 | 0.847 | 0.823 | 0.7606 | 0.7458 | 0.704 | 0.691 | 0.679
1 µM, coculture fibroblast: HPFa | 0.945 | 0.934 | 0.872 | 0.819 | 0.786 | 0.778 | 0.702 | 0.661 | 0.583
1 µM, coculture fibroblast: HUF | 0.928 | 0.839 | 0.793 | 0.723 | 0.681 | 0.66 | 0.618 | 0.603 | 0.586
1 µM, coculture fibroblast: Hs5 | 0.826 | 0.933 | 0.963 | 0.94 | 0.868 | 0.834 | 0.771 | 0.731 | 0.726
1 µM, coculture fibroblast: Hs27A | 0.865 | 0.802 | 0.784 | 0.78 | 0.721 | 0.707 | 0.661 | 0.629 | 0.589
1 µM, coculture fibroblast: Hs343T | 0.893 | 0.943 | 0.859 | 0.829 | 0.75 | 0.724 | 0.66 | 0.638 | 0.615
1 µM, coculture fibroblast: WS1 | 0.89359 | 0.832 | 0.784 | 0.716 | 0.671 | 0.641 | 0.613 | 0.584 | 0.575
